According to patent publication US11413296B2, “Viscous budesonide for the treatment of inflammatory diseases of the gastrointestinal tract” (The Regents of the University of California, priority 2005, dated 2022):
At least one compound was matched to its structure with a doubt left.

Assays:
children with EE = type: in vivo, human
Text: Patient 1 was a person with a history of abdominal pain, failure to thrive, and vomiting since infancy, and developmental delay with isolated EE diagnosed in 2001. Their allergic history was significant for allergic rhinitis secondary to cat, dog, and dust mite exposure as well as positive Pharmacia CAP radioallergosorbent testing for fish and milk. […] They were referred to Children's Hospital Eosinophilic Gastrointestinal Disorders clinic for further management of EE recalcitrant to usual therapy. At the time of their referral, they continued to have vomiting and poor weight gain and their parent reported significant difficulty with the puff and swallow technique. They were placed on a regimen of twice daily oral budesonide suspension (Pulmicort®) 500 micrograms (4 ml) mixed with about 10 packets (1 gram each) sucralose (Splenda®), a non-absorbed sugar in order to increase fluid viscosity to be swallowed twice daily. The total volume of the preparation was about 7 to 8 ml. […] Eight am cortisol was 13.2 mcg/dL (normal range for age 3-15 mcg/dL) after four months of therapy.
Patient 2 was a child with a history of developmental delay, abdominal pain, and RAST positivity for milk, egg, and wheat. […] They were placed on a hydrolyzed formula containing milk protein (Peptamen Jr®), omeprazole 10 mg twice daily and oral cromolyn (Gastrocrom®) 100 mg four times daily. […] They were referred to the Children's Hospital Eosinophilic Gastrointestinal Disorders clinic for further management. […] After two months of elemental formula and oral cromolyn sodium, EGD was unchanged with a pale, furrowed esophagus and maximal eosinophil counts of 100, 90, and 70 per hpf in the distal, mid, and proximal esophagus with diffuse basal zone hyperplasia. Their developmental delay precluded the use of a fluticasone inhaler devise with puff and swallow technique. As an alternative, they received oral budesonide 500 micrograms (Pulmicort®) mixed with sucralose (Splenda®) twice daily as topical esophageal therapy.

[1] = test system: inflammation within the esophagus; test: Treatment of more than 40 patients with oral Budesonide of increased fluid viscosity; type: in vivo, human; details: oral form, formulation with increased fluid viscosity
[2] = Patient 1, budesonide 500 micrograms with sucralose twice daily

In the case of `CCCC1O[C@@H]2C[C@H]3[C@@H]4CCC5=CC(=O)C=C[C@]5(C)[C@H]4[C@@H](O)C[C@]3(C)[C@]2(C(=O)CO)O1` (stereo partly drawn) [budesonide, 16,17-(butylidenebis(oxy))-11,21-dihydroxy-, (11-β,16-α)-pregna-1,4-diene-3,20-dione], the “esophageal eosinophils and basal zone hyperplasia in biopsies” value (children with EE; Patient 1 (74 per hpf before), budesonide suspension (Pulmicort) 500 micrograms (4 ml) mixed with about 10 packets sucralose, twice daily, 3 months) is reported as “complete resolution”, the “abdominal pain and vomiting” value (children with EE; [2]) is reported as “resolved” and the appetite and weight (children with EE; [2]) is reported as “increased appetite with documented weight gain”. For the same compound, the “repeat EGD appearance” value (children with EE; Patient 1, budesonide 500 micrograms with sucralose twice daily, 3 months) was “normal esophagus”, the basal zone hyperplasia (children with EE; Patient 2 (diffuse before), budesonide with sucralose twice daily, 3 months) was “decreased” and the EGD appearance (children with EE; Patient 2 (pale, furrowed before), budesonide with sucralose twice daily, 3 months) was “normal appearing esophagus”. For the same compound, the abdominal pain (children with EE; Patient 2, budesonide with sucralose twice daily, 3 months) was “improvement” and the “targeting inflammation within the esophagus” value [1] was “effective”.
